This is a selection; strong and weak results do not stand in their true shares.
Each target was assayed with COC(=O)C#Cc1ccccc1 [methyl 3-phenylpropiolate] (assay: log2 ratio of iodoacetamide-alkyne labeling of the cysteine site, DMSO over compound (competition); higher = stronger covalent engagement of the cysteine by the compound, active = 1 or more). Settings: 500 µM; treatment time 1 h; system: HEK293T cell lysate.
Summary of the method: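 Electrophile (500 µM) or vehicle was added to HEK293T lysate (2 mg/mL) for 1 h at ambient temperature before iodoacetamide alkyne labelling (1 h) and click coupling to sCIP-TMT reagents. After pooling, overnight trypsin digestion at 37 °C, streptavidin enrichment and acid elution, peptides were measured by Orbitrap Eclipse LC-MS/MS with FAIMS and quantified in FragPipe. Each cysteine's log2 competition ratio compares mean control-channel with mean compound-channel reporter intensity, control over compound. Data came from duplicate channels across three replicates, excluding cysteines quantified in only one replicate.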

Amino acid sequences for entries named in this document (tags omitted). A change or cut given only in a name is not applied to a line headed by its entry.
UniProt Q92667: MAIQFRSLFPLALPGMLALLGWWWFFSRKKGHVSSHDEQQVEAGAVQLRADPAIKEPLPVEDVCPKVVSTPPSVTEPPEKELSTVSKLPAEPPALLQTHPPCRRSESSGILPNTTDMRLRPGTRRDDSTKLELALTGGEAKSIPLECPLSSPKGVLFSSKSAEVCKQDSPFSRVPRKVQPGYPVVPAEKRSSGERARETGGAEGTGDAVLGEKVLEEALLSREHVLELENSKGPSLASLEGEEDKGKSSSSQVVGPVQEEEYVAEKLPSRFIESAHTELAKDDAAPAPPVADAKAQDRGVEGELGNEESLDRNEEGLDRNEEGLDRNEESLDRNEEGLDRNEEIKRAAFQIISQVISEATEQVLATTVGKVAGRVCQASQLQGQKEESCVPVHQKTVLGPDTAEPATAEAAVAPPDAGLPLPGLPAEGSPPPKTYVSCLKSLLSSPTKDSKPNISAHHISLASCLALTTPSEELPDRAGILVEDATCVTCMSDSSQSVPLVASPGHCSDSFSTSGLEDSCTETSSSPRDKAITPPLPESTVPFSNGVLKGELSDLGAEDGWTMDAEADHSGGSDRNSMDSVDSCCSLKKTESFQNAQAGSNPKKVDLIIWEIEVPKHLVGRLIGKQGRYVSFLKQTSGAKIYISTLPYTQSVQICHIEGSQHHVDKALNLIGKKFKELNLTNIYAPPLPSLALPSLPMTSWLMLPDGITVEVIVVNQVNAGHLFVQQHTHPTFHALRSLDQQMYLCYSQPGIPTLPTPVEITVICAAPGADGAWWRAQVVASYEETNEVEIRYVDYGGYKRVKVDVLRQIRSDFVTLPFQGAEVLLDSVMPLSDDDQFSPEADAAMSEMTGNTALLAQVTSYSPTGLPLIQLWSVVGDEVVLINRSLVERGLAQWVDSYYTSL
UniProt Q92989: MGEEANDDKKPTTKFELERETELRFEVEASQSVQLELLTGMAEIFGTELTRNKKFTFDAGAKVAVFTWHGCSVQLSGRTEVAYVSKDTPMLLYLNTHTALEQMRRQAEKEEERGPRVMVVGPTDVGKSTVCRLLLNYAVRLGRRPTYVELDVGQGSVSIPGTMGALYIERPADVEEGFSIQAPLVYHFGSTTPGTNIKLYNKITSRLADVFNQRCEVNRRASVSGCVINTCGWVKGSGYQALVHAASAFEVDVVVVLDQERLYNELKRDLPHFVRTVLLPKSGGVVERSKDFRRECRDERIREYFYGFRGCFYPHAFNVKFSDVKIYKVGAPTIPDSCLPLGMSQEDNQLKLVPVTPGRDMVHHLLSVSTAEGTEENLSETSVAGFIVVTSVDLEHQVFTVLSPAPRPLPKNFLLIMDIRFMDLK
UniProt Q92575: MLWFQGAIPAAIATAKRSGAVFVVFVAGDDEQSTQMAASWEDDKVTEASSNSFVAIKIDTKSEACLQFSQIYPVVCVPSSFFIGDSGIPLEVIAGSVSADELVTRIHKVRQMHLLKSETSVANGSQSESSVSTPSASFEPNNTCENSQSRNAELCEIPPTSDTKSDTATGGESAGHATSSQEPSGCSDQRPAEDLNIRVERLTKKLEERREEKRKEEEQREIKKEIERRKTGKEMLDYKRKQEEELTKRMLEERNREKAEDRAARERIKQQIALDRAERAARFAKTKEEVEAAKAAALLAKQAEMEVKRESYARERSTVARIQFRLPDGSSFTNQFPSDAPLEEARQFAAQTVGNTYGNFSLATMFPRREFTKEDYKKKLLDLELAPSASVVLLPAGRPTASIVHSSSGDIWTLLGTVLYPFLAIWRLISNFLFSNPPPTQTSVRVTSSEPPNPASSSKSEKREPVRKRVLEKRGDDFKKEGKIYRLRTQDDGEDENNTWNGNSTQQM
UniProt Q92922, whole entry, looked up: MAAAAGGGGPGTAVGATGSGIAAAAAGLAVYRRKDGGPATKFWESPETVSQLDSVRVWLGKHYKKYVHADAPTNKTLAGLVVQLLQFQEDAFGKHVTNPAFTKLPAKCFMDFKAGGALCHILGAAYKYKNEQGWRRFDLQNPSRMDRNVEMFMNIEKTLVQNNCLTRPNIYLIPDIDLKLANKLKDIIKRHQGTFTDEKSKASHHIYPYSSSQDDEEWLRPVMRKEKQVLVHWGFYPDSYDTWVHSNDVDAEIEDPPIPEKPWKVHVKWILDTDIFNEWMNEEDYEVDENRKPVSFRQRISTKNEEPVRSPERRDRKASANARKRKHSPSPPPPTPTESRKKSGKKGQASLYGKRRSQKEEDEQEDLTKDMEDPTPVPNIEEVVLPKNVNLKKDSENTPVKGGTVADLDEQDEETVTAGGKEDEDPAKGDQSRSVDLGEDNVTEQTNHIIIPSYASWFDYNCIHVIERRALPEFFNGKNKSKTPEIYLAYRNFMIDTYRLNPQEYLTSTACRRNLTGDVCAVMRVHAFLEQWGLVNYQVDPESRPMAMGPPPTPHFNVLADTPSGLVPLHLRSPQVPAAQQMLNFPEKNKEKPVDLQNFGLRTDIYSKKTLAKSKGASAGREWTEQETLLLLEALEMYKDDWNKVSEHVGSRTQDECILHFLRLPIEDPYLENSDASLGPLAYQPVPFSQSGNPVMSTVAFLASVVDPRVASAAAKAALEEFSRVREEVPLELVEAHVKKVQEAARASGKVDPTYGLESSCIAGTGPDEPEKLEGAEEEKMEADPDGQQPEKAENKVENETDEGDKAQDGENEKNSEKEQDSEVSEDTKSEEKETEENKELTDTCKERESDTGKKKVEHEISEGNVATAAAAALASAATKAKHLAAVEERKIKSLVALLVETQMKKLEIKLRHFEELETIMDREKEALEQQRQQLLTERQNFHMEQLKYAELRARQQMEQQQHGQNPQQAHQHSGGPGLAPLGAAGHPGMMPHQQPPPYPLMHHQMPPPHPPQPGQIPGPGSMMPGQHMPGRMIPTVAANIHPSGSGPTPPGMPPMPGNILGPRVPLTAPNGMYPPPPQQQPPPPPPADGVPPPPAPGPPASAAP
UniProt Q92841: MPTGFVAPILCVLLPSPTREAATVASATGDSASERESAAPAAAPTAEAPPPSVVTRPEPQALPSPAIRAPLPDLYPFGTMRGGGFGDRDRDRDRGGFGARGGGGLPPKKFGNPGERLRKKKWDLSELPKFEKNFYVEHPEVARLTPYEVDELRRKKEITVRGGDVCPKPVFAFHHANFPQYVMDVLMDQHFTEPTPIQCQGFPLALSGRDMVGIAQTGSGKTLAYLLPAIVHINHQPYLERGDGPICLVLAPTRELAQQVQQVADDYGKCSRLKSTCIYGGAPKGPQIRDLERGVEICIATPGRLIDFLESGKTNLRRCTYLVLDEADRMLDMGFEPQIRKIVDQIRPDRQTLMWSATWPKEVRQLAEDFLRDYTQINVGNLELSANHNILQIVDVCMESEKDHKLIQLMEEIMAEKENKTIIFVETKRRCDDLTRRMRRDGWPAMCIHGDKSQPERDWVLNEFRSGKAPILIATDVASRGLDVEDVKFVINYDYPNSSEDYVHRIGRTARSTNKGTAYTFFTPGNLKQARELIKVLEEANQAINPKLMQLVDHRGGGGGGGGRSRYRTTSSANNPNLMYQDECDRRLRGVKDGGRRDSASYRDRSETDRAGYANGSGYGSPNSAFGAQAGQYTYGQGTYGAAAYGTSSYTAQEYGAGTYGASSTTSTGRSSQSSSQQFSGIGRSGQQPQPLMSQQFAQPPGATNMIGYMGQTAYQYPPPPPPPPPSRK
UniProt Q96AE4: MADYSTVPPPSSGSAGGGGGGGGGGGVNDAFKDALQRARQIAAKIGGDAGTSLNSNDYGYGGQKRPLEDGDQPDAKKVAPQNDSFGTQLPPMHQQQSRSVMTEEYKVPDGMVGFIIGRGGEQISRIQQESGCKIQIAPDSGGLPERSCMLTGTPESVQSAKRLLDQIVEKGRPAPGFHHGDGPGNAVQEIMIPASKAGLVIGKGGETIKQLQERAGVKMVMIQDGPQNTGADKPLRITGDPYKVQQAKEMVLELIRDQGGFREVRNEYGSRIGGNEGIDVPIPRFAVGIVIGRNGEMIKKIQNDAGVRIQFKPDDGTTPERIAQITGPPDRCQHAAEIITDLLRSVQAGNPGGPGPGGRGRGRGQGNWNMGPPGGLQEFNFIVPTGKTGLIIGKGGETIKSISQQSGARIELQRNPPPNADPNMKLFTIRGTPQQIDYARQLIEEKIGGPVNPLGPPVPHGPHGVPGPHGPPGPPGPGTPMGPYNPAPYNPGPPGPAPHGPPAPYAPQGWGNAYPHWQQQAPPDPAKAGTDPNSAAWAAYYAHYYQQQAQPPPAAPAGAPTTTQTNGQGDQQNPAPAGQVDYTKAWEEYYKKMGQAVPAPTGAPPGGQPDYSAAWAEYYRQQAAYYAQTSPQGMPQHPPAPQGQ
UniProt Q93074, whole entry, looked up: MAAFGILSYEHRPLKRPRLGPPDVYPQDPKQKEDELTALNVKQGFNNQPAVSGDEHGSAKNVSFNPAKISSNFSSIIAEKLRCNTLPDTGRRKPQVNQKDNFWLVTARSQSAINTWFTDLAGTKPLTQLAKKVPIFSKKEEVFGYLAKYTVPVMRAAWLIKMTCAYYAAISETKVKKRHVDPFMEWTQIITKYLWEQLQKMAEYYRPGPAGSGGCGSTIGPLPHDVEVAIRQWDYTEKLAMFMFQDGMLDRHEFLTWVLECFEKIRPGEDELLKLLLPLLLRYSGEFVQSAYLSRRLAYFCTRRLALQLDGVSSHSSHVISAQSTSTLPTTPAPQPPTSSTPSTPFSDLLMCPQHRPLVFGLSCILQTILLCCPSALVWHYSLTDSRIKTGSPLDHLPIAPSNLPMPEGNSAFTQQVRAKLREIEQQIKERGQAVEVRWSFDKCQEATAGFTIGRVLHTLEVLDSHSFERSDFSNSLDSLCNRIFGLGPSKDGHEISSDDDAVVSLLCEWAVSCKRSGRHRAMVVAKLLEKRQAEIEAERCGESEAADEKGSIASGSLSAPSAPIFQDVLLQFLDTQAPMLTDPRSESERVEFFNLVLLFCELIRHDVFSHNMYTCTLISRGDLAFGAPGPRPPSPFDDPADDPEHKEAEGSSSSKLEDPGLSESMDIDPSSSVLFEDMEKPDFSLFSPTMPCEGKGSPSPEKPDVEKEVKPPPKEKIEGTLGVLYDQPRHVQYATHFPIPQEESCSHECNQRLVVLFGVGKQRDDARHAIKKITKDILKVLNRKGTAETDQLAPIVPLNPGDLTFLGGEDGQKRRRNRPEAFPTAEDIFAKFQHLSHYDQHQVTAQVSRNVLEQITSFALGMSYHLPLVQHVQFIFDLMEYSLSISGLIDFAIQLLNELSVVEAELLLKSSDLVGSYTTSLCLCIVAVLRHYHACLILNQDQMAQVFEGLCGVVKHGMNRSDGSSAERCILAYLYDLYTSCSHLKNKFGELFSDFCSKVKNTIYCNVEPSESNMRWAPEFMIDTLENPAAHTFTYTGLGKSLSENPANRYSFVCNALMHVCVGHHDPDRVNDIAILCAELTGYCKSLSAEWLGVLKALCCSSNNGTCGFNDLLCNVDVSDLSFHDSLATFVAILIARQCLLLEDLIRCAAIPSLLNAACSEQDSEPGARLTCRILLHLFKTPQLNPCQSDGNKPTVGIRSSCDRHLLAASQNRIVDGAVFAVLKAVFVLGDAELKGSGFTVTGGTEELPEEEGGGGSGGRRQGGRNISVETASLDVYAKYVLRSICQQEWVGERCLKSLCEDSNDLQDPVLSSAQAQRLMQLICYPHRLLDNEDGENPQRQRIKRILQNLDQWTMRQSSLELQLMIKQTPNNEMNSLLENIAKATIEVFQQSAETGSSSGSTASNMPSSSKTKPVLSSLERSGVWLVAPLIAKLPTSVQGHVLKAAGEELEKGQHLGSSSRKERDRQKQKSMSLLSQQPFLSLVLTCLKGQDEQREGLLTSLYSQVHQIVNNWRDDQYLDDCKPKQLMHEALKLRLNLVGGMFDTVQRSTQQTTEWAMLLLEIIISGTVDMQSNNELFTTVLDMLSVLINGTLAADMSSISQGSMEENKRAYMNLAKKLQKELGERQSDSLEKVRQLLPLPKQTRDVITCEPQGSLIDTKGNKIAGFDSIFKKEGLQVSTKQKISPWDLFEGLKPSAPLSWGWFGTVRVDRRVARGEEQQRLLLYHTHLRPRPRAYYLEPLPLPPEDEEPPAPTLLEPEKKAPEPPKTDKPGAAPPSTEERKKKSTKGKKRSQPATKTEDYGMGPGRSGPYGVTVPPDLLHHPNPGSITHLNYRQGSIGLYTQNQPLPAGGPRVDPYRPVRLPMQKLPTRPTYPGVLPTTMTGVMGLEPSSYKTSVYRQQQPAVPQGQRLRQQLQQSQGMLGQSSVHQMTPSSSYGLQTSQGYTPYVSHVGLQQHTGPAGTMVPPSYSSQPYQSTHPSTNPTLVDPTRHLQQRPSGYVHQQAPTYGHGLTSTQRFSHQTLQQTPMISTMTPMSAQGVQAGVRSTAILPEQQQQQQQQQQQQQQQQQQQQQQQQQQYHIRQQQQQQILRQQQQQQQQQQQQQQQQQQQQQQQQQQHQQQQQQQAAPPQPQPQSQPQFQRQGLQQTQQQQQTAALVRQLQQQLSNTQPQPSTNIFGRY

log2 ratio of iodoacetamide-alkyne labeling, active:
DHX38 C27 (UniProt Q92620) 1.36, AKAP1 C389 (UniProt Q92667) 1.15

log2 ratio of iodoacetamide-alkyne labeling, inactive:
CLP1 C338 (UniProt Q92989) 0.264, ZC3HAV1L C121 (UniProt Q96H79) 0.308, TSR2 C17 (UniProt Q969E8) 0.599, OTUB1 C23 (UniProt Q96FW1) 0.333, TNPO1 C683 (UniProt Q92973) 0.399, ZNF428 C111 (UniProt Q96B54) 0.523, UniProt Q96BR5_C24 -0.0575, MRPS27 C49 (UniProt Q92552) 0.0649, RPL36AL C77 (UniProt Q969Q0) -0.113, FAF2 C194 (UniProt Q96CS3) 0.689, UniProt Q92616_C2015 0.375, UniProt Q92879_C62 0.05, GBF1 C661 (UniProt Q92538) 0.209, POM121 C461 (UniProt Q96HA1) 0.43, USP7 C961 (UniProt Q93009) 0.169, UBXN4 C144 (UniProt Q92575) 0.748, LIN37 C28 (UniProt Q96GY3) 0.0818, UniProt Q92616_C1482 0.19, PDXP C91 (UniProt Q96GD0) 0.0378, SMARCC1 C462 (UniProt Q92922) 0.313, NUP205 C877 (UniProt Q92621) 0.102, USP9X C1566 (UniProt Q93008) 0.163, UniProt Q92879_C150 -0.0192, UniProt Q92841_C319 0.141, SMARCC1 C511 (UniProt Q92922) 0.155, USP9X C2075 (UniProt Q93008) 0.0811, NMD3 C214 (UniProt Q96D46) -0.00458, TOE1 C271 (UniProt Q96GM8) -0.12, CCDC47 C214 (UniProt Q96A33) 0.446, TMEM131 C1214 (UniProt Q92545) 0.265, FUBP1 C332 (UniProt Q96AE4) 0.285, UniProt Q92786_C300 0.486, GCDH C115 (UniProt Q92947) 0.212, Sirt1 C380 (UniProt Q96EB6) 0.579, MED12 C1006 (UniProt Q93074) 0.193

Source: the supplement of paper PMC11006884
